Our source for the IC50 values is article PMC10233092, “Selective Janus kinase 1 inhibition resolves inflammation and restores hair growth offering a viable treatment option for alopecia areata” (Skin Health and Disease, 2023).

The test relates to IL‐4, STAT6‐Luc. The test is described as follows: IL-4-induced JAK-STAT6-luciferase assay in U937 monocytes. Format: cell-based. The settings on record: Homo sapiens, U-937, interleukin at EC80.

Regarding `C[C@@H]1CCN(C(=O)CC#N)C[C@@H]1N(C)c1ncnc2[nH]ccc12` [Tofacitinib, reference compound], half-maximal inhibition (IC50) required 100 nM. In other words, the sub-micromolar range.
